# In all, about 33,000 sequences were measured (“E-score (-0.5 to 0.5)”: median about -0.015, highest 2% from about 0.3 on). This is one part of the list.
# Target: T1, Abf1 (UniProt P14164)
# T1 sequence: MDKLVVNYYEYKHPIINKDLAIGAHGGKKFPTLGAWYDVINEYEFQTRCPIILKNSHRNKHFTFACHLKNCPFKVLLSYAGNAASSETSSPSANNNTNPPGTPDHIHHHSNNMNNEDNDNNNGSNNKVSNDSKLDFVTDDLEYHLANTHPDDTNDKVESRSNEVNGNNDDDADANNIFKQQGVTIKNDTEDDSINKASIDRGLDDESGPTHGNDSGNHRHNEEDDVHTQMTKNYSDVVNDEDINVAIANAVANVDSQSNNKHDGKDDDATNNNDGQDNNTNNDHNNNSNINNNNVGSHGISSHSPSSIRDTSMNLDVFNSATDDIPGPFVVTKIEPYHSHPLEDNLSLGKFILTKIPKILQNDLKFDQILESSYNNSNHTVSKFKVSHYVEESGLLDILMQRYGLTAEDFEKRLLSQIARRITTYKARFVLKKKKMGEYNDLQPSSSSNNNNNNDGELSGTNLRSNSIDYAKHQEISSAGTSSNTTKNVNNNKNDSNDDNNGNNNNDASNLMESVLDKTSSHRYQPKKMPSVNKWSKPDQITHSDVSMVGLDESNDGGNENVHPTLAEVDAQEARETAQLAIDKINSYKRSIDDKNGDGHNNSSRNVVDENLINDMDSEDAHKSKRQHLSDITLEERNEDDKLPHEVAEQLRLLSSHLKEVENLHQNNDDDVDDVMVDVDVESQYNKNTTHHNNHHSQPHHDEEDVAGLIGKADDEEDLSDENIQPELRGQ
# Test: PBM E-score (8-mer binding enrichment) (E-score (-0.5 to 0.5)); higher = stronger / more preferred TF binding
# Conditions: protein concentration: 200 nM; construct: GST-full length
# Method in brief: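 Universal all-10-mer Agilent arrays, fresh or stripped once, were converted to double-stranded form by primer extension. GST-tagged yeast transcription factors from PURExpress in vitro transcription/translation, full-length or DNA-binding domain only, were applied at about 100-200 nM and detected with fluorescent anti-GST. After masliner normalisation, the Universal PBM Analysis Suite scored each ungapped eight-base word together with its reverse complement by E-score.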
row,Sequence,PBM E-score
1,TGGGCTAA,-0.143
2,AAATGCTC,-0.0929
3,CTTCTTAA,0.0451
4,AGGGCGCG,-0.299
5,AGCAATTC,0.0806
6,GATGAAAA,0.00307
7,CTTCAACA,0.0302
8,CCTCAGTC,-0.218
9,CCACCATC,-0.217
10,CGCCCGAA,-0.0642
11,AAACTCAG,-0.091
12,ATTCCATA,0.155
13,AGTCGCAG,-0.0448
14,TCCTACAA,-0.102
15,GCCCCGTA,0.222
16,CAACCCAA,-0.117
17,GGCCACTA,-0.188
18,TGCCCACA,-0.149
19,GGTTGGAA,-0.166
20,ACCAGGCT,-0.203
21,ACGTTGTC,0.0425
22,CGAGACAG,0.0375
23,ATGAGTAG,-0.0168
24,AAGCACGC,0.0205
25,CATGAGCG,0.141

# Looked up one by one from the entries so far (two):
row,Sequence,PBM E-score
19,GGTTGGAA,-0.166
7,CTTCAACA,0.0302

# Later entries

row,Sequence,PBM E-score
1,GCCCTAGA,-0.077
2,GACCTATC,-0.00351
3,AATAAACT,0.0151
4,GAAAGTTA,0.00502
5,ATGGTCCG,-0.00383
6,CCCCCCGA,-0.149
7,GTCCTGCA,-0.133
8,ACATTTCG,0.0127
9,ATGCGGGC,-0.12
10,CGGTGTTA,-0.213
11,ACATCAGT,-0.0164
12,CAAGAAAC,-0.137
13,ATGCACGC,-0.131
14,CGTACAAC,0.276
15,AAAGCAAA,0.118
16,CACCCATC,-0.0921
17,GACCGTGA,0.201
18,AAACAGGT,-0.0656
19,CAATTAAG,0.134
20,CTGTGGCC,-0.212
21,AGCTGTTC,-0.271
22,AGCTACCA,-0.127
23,AATCTCCC,-0.156
24,AAGTTCAA,-0.0539
25,GAGCCAAA,-0.124

row,Sequence,PBM E-score
1,TCAACTCA,-0.00687
2,AATCAGGT,0.0271
3,GATTTGCC,0.0759
4,CTATAAAG,-0.102
5,AAACCTAG,-0.0352
6,GCAGCCCA,-0.208
7,ATATAACC,0.0721
8,GCCGCACA,-0.0257
9,CCCTTTGA,-0.125
10,ATGCAAGG,-0.192
11,AGTTTGGA,0.0269
12,AAAATATA,0.177
13,GCCAGGAC,-0.212
14,GGAAGAAA,-0.198
15,AAGAAGGG,-0.205
16,TAGGGACA,-0.0916
17,AGCGTGCG,0.046
18,CCATATAA,0.147
19,CACAACCC,-0.194
20,GAAGAGAC,0.00676
21,AACAGCTA,0.164
22,CCGCCCTA,-0.167
23,AATACGAA,0.337
24,GTAGAAGA,-0.0045
25,CATTTAGC,0.0637

row,Sequence,PBM E-score
1,ATTAGAAA,0.0238
2,CACCGGGA,-0.182
3,AGTATACT,-0.253
4,CACATAAG,-0.1
5,GCAAAGGC,-0.282
6,GGAAGACC,-0.183
7,AACTGATT,-0.2
8,AGCCAACT,-0.286
9,GAGCGTAA,0.1
10,ACGCCGAT,0.0427
11,AAAGTTGG,-0.0391
12,GACGAGTC,0.241
13,CCGTTACG,-0.00175
14,AGCGTAAC,0.166
15,CGCTGCGA,0.00403
16,CTTTCCCA,-0.0958
17,ACGCTCTA,-0.0747
18,AAAATGAT,0.387
19,TAATGATA,0.348
20,GGTGCCAC,-0.0319
21,CTCCGTCA,0.11
22,AGTGGGTC,-0.336
23,AGCGCAAG,-0.0213
24,ACGTAACG,-0.034
25,CTAAGTAA,0.127

row,Sequence,PBM E-score
1,CCTGGCCC,-0.175
2,CTCAATCA,0.121
3,AGGTTGCC,-0.162
4,AATCTGCT,0.0219
5,AGGCACCT,-0.152
6,GATGTAGA,0.0771
7,ATTCGGAC,0.113
8,GGCACCAA,-0.144
9,AAAGCTCG,-0.0874
10,GTAAATGA,0.178
11,GGTCTACA,-0.102
12,ATCGGTCG,0.0208
13,ACTAATAT,0.218
14,AACGCAAC,0.0366
15,CGGGACAA,0.114
16,AATTACAT,0.0833
17,GGTCACTA,0.281
18,ATTTGAGG,-0.115
19,GTTGGTGA,0.119
20,CATATGGC,-0.0586
21,ACATGAAA,0.0994
22,CAGATGGC,0.0969
23,AATACGCT,-0.0754
24,AATTCAGT,-0.00766
25,AAGAACCA,-0.132

row,Sequence,PBM E-score
1,CAGGGAAC,-0.0439
2,GGCTCCGA,-0.117
3,TGCGACCA,-0.0796
4,AAATGTGC,-0.0895
5,AATTAAGG,0.071
6,CATTCGAG,-0.0113
7,TCTCGGAA,0.0569
8,CGTGCAGA,0.197
9,CCGTGTGA,0.301
10,AGCCAAAG,-0.0262
11,ATTCGGTA,0.245
12,ACGCACGG,0.196
13,GACTCATC,-0.047
14,CAGGTGCC,-0.142
15,CAACTTGA,-0.0105
16,ATGGGGGA,-0.342
17,ACTGAGCA,0.0487
18,AAAGAAGT,0.0495
19,AGATGGAC,0.0909
20,GTCGATAA,0.0478
21,TAGGTGCA,-0.15
22,ACACAGCT,-0.158
23,CCAACAAA,0.037
24,TCATCACA,0.125
25,AACGAATT,0.138

# Quoted from the listing for reference:
row,Sequence,PBM E-score
3,TGCGACCA,-0.0796
4,AAATGTGC,-0.0895
5,AATTAAGG,0.071

# The listing continues.

row,Sequence,PBM E-score
1,GAAGATTA,0.0292
2,GAAGAACA,0.156
3,ACAGGAAG,-0.0692
4,AAACCTAA,0.127
5,GTCAAGGA,0.0311
6,ATAGCTAG,-0.216
7,CGAGAGGA,0.00468
8,GCTAACCC,-0.248
9,CCCAGCAA,-0.0182
10,AGTTGACC,-0.0281
11,CCAGAGAC,-0.279
12,GATTTCTA,0.114
13,CGACGGTA,0.322
14,CATTGCAG,0.0247
15,AATGCGCT,-0.0125
16,ACGAATGG,0.174
17,CGCAACCA,-0.0327
18,CAACGCTA,-0.076
19,CTTTGGGC,-0.083
20,GACGGTAC,0.263
21,ATCACATA,0.276
22,CACCATGA,0.151
